Source: paper doi:10.1101/2025.11.04.686508

The chains behind the UniProt entries cited, without tags or fusion partners.
UniProt O22467: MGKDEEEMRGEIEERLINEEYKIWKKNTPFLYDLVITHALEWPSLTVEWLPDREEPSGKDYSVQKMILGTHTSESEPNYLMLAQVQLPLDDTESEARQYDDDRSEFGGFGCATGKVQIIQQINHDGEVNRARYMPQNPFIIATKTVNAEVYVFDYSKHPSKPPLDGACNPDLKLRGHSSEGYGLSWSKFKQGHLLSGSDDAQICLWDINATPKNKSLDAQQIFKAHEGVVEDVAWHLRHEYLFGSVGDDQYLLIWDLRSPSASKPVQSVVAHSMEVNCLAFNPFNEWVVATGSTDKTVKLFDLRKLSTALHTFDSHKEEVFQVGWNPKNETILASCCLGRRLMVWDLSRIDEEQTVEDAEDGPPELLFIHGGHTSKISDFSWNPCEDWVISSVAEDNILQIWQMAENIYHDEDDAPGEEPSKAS
UniProt O04539: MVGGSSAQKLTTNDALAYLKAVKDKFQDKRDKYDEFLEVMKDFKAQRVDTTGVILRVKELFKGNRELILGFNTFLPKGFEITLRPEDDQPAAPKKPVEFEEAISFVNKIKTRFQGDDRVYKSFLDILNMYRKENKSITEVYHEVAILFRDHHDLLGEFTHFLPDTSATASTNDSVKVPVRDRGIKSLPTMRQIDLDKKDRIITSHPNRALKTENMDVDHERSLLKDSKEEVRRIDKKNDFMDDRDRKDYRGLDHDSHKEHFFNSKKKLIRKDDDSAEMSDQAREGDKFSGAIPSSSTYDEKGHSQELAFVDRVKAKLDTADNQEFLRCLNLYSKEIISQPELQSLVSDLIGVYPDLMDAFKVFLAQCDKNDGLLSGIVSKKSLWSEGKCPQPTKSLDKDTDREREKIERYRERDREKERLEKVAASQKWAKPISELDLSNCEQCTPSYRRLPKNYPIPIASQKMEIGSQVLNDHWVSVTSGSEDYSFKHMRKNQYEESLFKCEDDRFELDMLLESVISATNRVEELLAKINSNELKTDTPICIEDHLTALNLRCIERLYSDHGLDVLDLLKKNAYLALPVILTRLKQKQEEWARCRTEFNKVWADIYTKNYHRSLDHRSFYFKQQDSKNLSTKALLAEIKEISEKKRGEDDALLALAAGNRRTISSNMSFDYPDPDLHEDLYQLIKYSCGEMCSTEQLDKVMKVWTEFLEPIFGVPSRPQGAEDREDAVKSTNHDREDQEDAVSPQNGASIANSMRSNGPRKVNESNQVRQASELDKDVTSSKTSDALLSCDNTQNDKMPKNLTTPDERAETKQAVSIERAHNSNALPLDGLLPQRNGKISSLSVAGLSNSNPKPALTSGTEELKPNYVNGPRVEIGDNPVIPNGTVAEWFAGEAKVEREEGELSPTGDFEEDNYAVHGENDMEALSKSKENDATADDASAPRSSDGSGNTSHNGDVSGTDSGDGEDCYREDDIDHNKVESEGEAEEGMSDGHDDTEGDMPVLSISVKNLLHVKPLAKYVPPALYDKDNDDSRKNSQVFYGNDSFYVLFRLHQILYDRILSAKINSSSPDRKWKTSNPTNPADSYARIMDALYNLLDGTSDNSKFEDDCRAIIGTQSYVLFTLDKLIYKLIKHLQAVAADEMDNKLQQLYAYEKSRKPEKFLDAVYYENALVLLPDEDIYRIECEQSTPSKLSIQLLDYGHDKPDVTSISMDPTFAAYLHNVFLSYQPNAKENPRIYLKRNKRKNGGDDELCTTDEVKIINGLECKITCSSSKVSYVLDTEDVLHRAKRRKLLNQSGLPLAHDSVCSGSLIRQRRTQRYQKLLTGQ
UniProt Q9XIK6: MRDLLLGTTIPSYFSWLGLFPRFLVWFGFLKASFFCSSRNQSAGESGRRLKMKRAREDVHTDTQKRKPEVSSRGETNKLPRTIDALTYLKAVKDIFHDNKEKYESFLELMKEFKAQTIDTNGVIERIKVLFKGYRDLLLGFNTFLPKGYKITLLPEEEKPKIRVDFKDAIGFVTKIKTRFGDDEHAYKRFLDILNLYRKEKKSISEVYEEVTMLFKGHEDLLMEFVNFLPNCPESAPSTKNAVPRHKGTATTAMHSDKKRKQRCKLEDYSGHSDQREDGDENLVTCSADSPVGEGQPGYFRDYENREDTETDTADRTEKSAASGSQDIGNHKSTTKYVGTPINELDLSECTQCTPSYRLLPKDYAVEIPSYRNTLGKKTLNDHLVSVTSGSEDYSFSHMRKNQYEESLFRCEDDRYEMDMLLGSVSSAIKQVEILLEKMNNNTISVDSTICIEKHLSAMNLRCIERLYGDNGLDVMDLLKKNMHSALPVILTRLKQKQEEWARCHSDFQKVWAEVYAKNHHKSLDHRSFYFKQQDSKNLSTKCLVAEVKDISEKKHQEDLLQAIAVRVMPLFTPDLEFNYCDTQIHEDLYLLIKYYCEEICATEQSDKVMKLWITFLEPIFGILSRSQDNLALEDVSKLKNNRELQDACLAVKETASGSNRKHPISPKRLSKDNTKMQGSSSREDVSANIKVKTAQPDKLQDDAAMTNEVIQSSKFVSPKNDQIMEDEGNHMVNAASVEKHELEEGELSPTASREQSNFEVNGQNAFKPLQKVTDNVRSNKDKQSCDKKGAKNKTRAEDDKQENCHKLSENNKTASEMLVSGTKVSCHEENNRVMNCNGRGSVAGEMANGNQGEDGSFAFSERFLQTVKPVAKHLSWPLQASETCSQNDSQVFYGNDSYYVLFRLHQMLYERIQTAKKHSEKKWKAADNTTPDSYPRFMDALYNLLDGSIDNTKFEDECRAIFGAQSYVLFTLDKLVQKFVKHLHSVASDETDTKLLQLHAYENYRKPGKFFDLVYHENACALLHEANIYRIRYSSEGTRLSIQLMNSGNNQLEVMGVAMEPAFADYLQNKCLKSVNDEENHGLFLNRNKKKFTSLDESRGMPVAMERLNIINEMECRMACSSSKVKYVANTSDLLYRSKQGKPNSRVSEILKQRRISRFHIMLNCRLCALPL
UniProt Q9XIE1: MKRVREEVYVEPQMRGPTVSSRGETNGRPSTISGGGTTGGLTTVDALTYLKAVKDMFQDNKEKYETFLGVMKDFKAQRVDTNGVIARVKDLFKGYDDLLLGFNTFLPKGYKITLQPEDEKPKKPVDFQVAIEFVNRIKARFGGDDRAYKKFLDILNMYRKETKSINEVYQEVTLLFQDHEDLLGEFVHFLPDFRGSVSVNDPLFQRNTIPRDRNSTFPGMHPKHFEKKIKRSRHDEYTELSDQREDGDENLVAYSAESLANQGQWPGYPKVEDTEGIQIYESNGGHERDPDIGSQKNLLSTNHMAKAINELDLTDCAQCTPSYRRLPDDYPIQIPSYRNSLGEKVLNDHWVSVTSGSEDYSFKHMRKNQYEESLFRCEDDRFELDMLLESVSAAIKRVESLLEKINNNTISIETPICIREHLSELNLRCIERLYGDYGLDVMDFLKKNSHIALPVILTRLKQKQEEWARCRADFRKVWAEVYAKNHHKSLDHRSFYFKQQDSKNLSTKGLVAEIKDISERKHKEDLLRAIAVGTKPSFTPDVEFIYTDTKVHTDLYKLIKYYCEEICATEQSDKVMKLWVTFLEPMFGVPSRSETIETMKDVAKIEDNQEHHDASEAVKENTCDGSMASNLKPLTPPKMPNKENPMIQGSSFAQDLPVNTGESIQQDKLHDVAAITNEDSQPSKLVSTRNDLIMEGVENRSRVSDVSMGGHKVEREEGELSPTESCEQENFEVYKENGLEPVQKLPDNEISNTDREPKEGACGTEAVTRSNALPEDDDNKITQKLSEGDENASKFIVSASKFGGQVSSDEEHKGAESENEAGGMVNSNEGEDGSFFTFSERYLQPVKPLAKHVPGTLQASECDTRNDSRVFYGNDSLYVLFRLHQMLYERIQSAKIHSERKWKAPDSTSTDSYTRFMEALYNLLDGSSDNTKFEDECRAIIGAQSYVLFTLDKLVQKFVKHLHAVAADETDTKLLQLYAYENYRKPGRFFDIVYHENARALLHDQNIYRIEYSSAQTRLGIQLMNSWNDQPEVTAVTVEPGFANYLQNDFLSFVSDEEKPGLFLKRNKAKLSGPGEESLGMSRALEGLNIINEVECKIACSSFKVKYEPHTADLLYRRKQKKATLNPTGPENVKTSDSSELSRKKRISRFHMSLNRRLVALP
UniProt P41916: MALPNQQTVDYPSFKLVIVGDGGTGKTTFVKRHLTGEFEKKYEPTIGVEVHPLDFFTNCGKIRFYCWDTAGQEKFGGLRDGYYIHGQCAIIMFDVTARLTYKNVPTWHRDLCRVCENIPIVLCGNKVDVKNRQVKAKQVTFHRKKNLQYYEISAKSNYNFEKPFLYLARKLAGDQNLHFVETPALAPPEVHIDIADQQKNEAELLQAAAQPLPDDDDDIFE

Target: T1, MycHDA19 (Myc-tagged histone deacetylase 19) (Arabidopsis thaliana) (UniProt O22446)
T1 sequence: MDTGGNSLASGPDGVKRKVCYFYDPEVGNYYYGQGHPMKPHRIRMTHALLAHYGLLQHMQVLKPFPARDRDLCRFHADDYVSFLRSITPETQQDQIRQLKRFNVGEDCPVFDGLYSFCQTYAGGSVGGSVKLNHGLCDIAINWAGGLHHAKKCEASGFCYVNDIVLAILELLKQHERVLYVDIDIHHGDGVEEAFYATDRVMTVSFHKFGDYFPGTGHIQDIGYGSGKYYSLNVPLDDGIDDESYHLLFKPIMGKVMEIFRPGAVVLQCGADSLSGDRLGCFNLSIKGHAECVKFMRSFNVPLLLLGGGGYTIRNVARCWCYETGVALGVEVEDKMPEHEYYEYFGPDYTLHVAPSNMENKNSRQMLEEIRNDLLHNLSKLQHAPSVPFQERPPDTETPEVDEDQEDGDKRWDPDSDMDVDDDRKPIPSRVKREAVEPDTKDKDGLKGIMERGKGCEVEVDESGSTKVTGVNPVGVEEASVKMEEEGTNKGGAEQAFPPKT
Assay: affinity purification with mass spectrometry

Row | Substance | binding
1 | MSI1 (from UniProt O22467 1-424) | binds
2 | SIN3-like (SNL) protein 4 (from UniProt O04539 1-1326) | binds
3 | SIN3-like (SNL) protein 6 (from UniProt Q9XIK6 1-1173) | binds
4 | SIN3-like (SNL) protein 5 (from UniProt Q9XIE1 1-1162) | binds
5 | RPS26e | binds
6 | small GTP-binding protein RAN1 (from UniProt P41916 1-221) | binds
7 | APOK3 | binds
8 | HDIP3 | binds

No constants are given. Whether binding was seen depends on the method and setting. In cells and extracts the contact can be indirect. These calls come from enrichment with a bait or labelling near it, and not all partners need be listed. Where a sequence is shown, tags or fusion partners need not be part of it.
